Experimental data reported in article PMC9533685, “NICD3 regulates the expression of MUC5AC and MUC2 by recruiting SMARCA4 and is involved in the differentiation of mucinous colorectal adenocarcinoma” (Molecular Oncology, 2022).
Results are given in words; binding and its absence hold for the method and conditions named. In cells and extracts the contact can be indirect. Some binding calls cover weakened binding; strength is not graded here.

By UniProt entry, the sequences of proteins in these tests, tags left out. Residues count along the entry.
UniProt P51532: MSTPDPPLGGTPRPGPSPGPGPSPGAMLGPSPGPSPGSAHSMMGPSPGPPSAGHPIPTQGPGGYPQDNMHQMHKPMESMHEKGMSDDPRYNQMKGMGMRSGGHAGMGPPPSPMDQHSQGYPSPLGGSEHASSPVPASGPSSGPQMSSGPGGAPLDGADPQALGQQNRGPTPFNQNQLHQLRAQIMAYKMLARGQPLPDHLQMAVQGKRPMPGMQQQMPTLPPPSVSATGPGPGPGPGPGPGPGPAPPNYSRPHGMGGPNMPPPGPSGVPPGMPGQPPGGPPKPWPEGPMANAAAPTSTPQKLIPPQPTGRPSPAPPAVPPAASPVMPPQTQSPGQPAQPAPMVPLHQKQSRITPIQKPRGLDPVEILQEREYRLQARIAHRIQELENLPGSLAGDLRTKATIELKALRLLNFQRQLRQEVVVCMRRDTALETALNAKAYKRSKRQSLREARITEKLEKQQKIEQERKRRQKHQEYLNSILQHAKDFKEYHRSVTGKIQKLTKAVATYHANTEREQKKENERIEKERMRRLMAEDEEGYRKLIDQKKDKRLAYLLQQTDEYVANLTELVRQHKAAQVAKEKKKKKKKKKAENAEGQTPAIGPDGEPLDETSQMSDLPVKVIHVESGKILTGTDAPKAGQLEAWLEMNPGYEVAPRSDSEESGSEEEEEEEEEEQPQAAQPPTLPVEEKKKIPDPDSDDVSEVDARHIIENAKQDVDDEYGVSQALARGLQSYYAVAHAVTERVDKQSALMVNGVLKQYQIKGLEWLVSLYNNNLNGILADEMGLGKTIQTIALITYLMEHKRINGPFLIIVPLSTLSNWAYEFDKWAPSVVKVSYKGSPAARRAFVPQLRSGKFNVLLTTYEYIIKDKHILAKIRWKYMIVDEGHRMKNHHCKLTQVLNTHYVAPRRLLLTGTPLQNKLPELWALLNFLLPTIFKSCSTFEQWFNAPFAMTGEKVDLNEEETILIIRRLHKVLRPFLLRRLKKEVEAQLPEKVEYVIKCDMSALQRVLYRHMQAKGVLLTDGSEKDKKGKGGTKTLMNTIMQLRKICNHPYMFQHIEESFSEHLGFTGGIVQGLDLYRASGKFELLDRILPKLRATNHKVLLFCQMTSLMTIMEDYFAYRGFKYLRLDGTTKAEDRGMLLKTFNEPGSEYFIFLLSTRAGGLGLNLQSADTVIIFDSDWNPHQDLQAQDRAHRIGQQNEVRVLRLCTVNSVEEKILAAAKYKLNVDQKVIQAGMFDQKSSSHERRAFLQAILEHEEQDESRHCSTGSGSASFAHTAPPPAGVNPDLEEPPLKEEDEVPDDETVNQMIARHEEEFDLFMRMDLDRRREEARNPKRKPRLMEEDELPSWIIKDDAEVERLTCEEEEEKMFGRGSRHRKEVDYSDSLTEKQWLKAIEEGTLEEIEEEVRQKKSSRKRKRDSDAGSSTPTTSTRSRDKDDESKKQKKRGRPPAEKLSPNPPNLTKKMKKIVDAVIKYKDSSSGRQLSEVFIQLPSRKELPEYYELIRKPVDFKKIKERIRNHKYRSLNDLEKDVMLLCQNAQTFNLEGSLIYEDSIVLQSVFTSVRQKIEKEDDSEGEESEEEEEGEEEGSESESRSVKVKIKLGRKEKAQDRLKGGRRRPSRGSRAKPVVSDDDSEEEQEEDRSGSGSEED
UniProt Q9UM47, residues 40-2321: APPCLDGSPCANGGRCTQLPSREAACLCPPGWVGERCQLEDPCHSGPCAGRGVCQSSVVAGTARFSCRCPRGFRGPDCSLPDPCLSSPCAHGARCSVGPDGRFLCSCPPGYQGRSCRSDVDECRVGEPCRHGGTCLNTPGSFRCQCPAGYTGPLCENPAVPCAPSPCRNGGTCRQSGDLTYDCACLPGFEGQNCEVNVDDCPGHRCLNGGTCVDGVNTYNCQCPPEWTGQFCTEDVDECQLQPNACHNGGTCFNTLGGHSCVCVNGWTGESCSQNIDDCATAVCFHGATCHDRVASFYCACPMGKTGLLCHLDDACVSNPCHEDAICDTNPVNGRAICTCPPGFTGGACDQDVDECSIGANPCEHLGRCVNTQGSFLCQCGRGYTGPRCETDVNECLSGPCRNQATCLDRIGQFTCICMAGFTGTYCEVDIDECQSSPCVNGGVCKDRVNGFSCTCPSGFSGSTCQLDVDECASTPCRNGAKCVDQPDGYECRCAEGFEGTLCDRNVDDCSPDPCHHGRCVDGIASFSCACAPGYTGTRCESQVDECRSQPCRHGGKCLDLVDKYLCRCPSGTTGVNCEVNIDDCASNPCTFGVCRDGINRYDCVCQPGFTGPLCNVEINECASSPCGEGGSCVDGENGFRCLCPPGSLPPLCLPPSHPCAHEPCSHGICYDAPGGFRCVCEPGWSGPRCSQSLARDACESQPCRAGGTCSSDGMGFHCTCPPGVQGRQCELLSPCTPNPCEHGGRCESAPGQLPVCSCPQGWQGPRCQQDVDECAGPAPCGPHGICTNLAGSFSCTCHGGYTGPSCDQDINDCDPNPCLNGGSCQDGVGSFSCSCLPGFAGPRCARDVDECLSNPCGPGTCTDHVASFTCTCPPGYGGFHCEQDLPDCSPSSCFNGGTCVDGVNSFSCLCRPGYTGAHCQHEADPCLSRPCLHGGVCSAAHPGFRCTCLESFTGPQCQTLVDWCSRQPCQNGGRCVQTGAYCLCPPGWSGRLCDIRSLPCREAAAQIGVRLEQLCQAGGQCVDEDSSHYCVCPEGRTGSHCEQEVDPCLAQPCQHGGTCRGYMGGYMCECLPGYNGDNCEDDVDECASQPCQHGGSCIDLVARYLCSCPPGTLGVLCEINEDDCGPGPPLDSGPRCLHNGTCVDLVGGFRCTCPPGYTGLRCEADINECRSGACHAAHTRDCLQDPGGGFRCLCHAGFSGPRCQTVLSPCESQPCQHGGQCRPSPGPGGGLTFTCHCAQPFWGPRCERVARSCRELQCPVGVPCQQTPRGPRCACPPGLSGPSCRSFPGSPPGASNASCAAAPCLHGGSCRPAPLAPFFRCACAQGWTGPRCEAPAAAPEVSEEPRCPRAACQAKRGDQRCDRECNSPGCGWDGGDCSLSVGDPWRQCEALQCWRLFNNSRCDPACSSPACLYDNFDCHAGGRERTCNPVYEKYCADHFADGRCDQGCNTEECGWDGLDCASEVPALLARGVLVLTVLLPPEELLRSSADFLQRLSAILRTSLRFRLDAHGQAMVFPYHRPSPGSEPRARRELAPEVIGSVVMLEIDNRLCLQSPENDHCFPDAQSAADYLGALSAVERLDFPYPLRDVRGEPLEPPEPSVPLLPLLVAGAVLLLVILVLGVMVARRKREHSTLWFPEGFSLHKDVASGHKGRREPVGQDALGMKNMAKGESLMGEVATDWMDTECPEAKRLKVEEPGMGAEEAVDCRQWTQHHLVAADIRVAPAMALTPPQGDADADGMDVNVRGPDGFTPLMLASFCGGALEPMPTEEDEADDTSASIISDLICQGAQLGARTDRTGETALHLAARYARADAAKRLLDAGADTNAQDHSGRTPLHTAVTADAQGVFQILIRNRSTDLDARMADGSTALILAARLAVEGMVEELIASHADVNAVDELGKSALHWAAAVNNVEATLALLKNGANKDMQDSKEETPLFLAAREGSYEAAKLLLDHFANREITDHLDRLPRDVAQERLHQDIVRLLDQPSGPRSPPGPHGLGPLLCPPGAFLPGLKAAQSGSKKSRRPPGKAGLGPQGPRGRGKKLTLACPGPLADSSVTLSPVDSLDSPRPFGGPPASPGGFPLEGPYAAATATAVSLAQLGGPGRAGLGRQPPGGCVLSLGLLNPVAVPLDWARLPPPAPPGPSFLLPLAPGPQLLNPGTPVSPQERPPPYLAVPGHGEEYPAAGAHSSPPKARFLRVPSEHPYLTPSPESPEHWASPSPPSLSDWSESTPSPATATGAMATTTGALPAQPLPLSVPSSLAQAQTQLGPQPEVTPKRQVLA

Target: Transcription activator BRG1 (SMARCA4), endogenous in colorectal cancer cells (human (endogenous in HCT116, HT29, SW480, SW620)) (UniProt P51532)
Assay: co-IP; endogenous proteins in RIPA lysates of HCT116, HT29, SW480 and SW620 cells; IP with anti-NOTCH3 or anti-SMARCA4, protein A/G beads, 4 °C; IgG as negative control; Western blot

Question: “Neurogenic locus notch homolog protein 3 (NOTCH3), endogenous in colorectal cancer cells (from UniProt Q9UM47 40-2321) (receptor)” was tested. Which binding did it give?
Answer: Its binding is “binds”.
